Data as given in patent publication US20050255493A1, “Molecular targeting of the IGF-1 receptor” (priority 2002, published 2005).
Some entries share one result that the patent states for a list of compounds.

Test system: UC101 human ovarian cancer cells
Assay: Tumorigenicity of UC101 ovarian cancer cells transfected with siRNA (xenografts)
Assay type: in vivo, female athymic (nu/nu mice)
Conditions: UC101 cells transfected with 200 nM siRNA, nu/nu mice
Procedure: UC101 ovarian cancer cells were transfected with 200 nM siRNA, mixed with irradiated NIH-3T3 cells and inoculated into the flanks of female athymic (nu/nu mice).
Tumorigenicity testing was conducted using UC101 human ovarian cancer cells transfected with 200 nM siRNA. After 48 hr the cells were inoculated into the flanks of female athymic (nu/nu mice), using 5×10^6 tumour cells mixed with 5×10^6 irradiated NIH-3T3 cells per mouse. Tumours were measured and volumes calculated as described (Macaulay et al., Oncogene 20: 2029-40, 2001). All procedures were performed in accordance with the Home Office Scientific Procedures Act 1986, and with the approval of the Animal Ethics Committee of Cancer Research UK.

Substance	Time to sacrifice [days]
R5: RNAi duplex UGAGUACAACUACCGCUGCTT / TTACUCAUGUUGAUGGCGACG, SEQ ID NO:32 (UGAGUACAACUACCGCUGCNN; second strand not cited, chemistry not fully specified)	≤ 30
R6: RNAi duplex CUACAUUGUGGGGAAUAAGTT / TTGAUGUAACACCCCUUAUUC, SEQ ID NO:34 (CUACAUUGUGGGGAAUAAGNN; second strand not cited, chemistry not fully specified)	≤ 30
